# The list shows a part of the results. Single values are uncertain, as repeats are few or missing.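 Cells were imaged in 1,536-well plates, and nuclei stained with an antibody against cleaved PARP were counted against all DNA-stained nuclei to give the apoptosis fraction. Screening doses were chosen to leave most cells alive, and resting and induced cleaved-PARP levels differ strongly between cell lines.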
# Experiments:
# Test in all cases: cleaved PARP positive nuclei fraction relative to DMSO control; melanoma cells; higher = more apoptosis
# Conditions in all cases: library dose: low library concentration; 72 h
# MZ2-MEL = system: MZ2-MEL
# MeWo = system: MeWo
# RPMI7951 = system: RPMI7951
# RVH-421 = system: RVH-421
# SkMel28 = system: SkMel28
# SkMel30 = system: SkMel30
# SkMel5 = system: SkMel5
# UACC257 = system: UACC257
# UACC62 = system: UACC62
Structure (SMILES),cleaved PARP positive nuclei fraction (MZ2-MEL) [%],cleaved PARP positive nuclei fraction (MeWo) [%],cleaved PARP positive nuclei fraction (RPMI7951) [%],cleaved PARP positive nuclei fraction (RVH-421) [%],cleaved PARP positive nuclei fraction (SkMel28) [%],cleaved PARP positive nuclei fraction (SkMel30) [%],cleaved PARP positive nuclei fraction (SkMel5) [%],cleaved PARP positive nuclei fraction (UACC257) [%],cleaved PARP positive nuclei fraction (UACC62) [%]
"CN(C)S(=O)(=O)c1ccc2c(c1)/C(=C/c1cc3c([nH]1)CCCC3)C(=O)N2 + CCc1ccc(CCOc2ccc(CC3SC(=O)NC3=O)cc2)nc1 [pioglitazone] (first compound 0.4 µM, partner dose 2 µM)",143,78.8,89.4,226,118,40.5,56.4,37.4,120
"O=C(O)c1ccc(-c2c[nH]c3ncc(-c4ccccc4)cc23)cc1C1CCCC1 + O=C(Nc1ccccc1)c1cc([N+](=O)[O-])ccc1Cl [GW9662] (first compound 0.16 µM, partner dose 2 µM)",144,57.7,132,160,171,99.6,89.2,58.3,35.7
"N#Cc1c(O)c2c(-c3ccc(-c4ccccc4O)cc3)csc2[nH]c1=O + O=c1cc(-c2cccc3c2Sc2ccccc2S3)oc(N2CCOCC2)c1 [KU55933] (first compound 2 µM, partner dose 1 µM)",128,163,77,103,160,1270,42,102,269
"COc1cc2ncnc(Nc3ccc(Oc4ccccc4)cc3)c2cc1OC + COc1cc(N2CCC(N3CCN(C)CC3)CC2)ccc1Nc1ncc(Cl)c(Nc2ccccc2S(=O)(=O)C(C)C)n1 [NVP-TAE684] (first compound 2 µM, partner dose 0.08 µM)",90,95.5,72.7,85.2,161,53.9,32.6,112,50.9
"O=S(=O)(c1ccccc1)N(CC(F)(F)F)c1ccc(C(O)(C(F)(F)F)C(F)(F)F)cc1 + Oc1cc(-c2nc(-c3ccccc3)[nH]c2-c2ccncc2)ccc1Cl [L779450] (first compound 1.4 µM, partner dose 0.2 µM)",54.1,67.9,172,145,205,120,325,57.4,121
"COc1cc2c(Oc3ccc4[nH]c(C)cc4c3F)ncnc2cc1OCCCN1CCCC1 [cediranib] + COc1cc2ncnc(Nc3ccc(Oc4ccccc4)cc3)c2cc1OC [SrcI1] (first compound 0.4 µM, partner dose 2 µM)",168,143,87.6,20.2,98.5,160,65.4,64.9,39.5
"CN(C)S(=O)(=O)c1ccc2c(c1)/C(=C/c1cc3c([nH]1)CCCC3)C(=O)N2 + CCCCCCCCCCCC1=C(O)C(=O)C=C(O)C1=O [Embelin] (first compound 0.4 µM, partner dose 1.2 µM)",139,245,185,85.6,222,21.3,133,218,60.5
"CCN(CC)CCCCNc1ncc2cc(-c3cc(OC)cc(OC)c3)c(NC(=O)NC(C)(C)C)nc2n1 + CC(C)CCN1c2nc(Nc3cc(F)c(O)c(F)c3)ncc2N(C)C(=O)C1C [BID1870] (first compound 0.1 µM, partner dose 0.2 µM)",118,35.6,38.3,12.8,76.8,413,55.5,135,36.4
"Oc1cc(-c2nc(-c3ccccc3)[nH]c2-c2ccncc2)ccc1Cl + COc1cc(N2CCC(N3CCN(C)CC3)CC2)ccc1Nc1ncc(Cl)c(Nc2ccccc2S(=O)(=O)C(C)C)n1 [NVP-TAE684] (first compound 0.2 µM, partner dose 0.08 µM)",99.2,57.4,83.4,115,195,67.6,79.4,141,227
"CN(C)S(=O)(=O)c1ccc2c(c1)/C(=C/c1cc3c([nH]1)CCCC3)C(=O)N2 + COc1ccc(COc2ccc(Cc3cnc(N)nc3N)cc2OC)cc1 [GW2580] (first compound 0.4 µM, partner dose 1 µM)",109,109,136,35.5,94.6,16,124,93.3,142
"NCC(=O)Nc1ccc(-n2nc(C(F)(F)F)cc2-c2ccc3c(ccc4ccccc43)c2)cc1 + CC(C)CCN1c2nc(Nc3cc(F)c(O)c(F)c3)ncc2N(C)C(=O)C1C [BID1870] (first compound 1 µM, partner dose 0.2 µM)",109,177,43.8,138,236,40.1,29.2,254,237
"CN(NC(=O)CC(=O)NN(C)C(=S)c1ccccc1)C(=S)c1ccccc1 + COc1ccc2c(c1)CCC1C2CCC2(C)C(NCCCCCCN3C(=O)C=CC3=O)CCC12 [U73122] (first compound 0.006 µM, partner dose 0.4 µM)",122,39,103,101,154,113,35.4,80.7,30.2

# Part of the list above, as tab-separated lines.
Structure (SMILES)	cleaved PARP positive nuclei fraction (MZ2-MEL) [%]	cleaved PARP positive nuclei fraction (MeWo) [%]	cleaved PARP positive nuclei fraction (RPMI7951) [%]	cleaved PARP positive nuclei fraction (RVH-421) [%]	cleaved PARP positive nuclei fraction (SkMel28) [%]	cleaved PARP positive nuclei fraction (SkMel30) [%]	cleaved PARP positive nuclei fraction (SkMel5) [%]	cleaved PARP positive nuclei fraction (UACC257) [%]	cleaved PARP positive nuclei fraction (UACC62) [%]
N#Cc1c(O)c2c(-c3ccc(-c4ccccc4O)cc3)csc2[nH]c1=O + O=c1cc(-c2cccc3c2Sc2ccccc2S3)oc(N2CCOCC2)c1 [KU55933] (first compound 2 µM, partner dose 1 µM)	128	163	77	103	160	1270	42	102	269
COc1cc2ncnc(Nc3ccc(Oc4ccccc4)cc3)c2cc1OC + COc1cc(N2CCC(N3CCN(C)CC3)CC2)ccc1Nc1ncc(Cl)c(Nc2ccccc2S(=O)(=O)C(C)C)n1 [NVP-TAE684] (first compound 2 µM, partner dose 0.08 µM)	90	95.5	72.7	85.2	161	53.9	32.6	112	50.9

# — the supplement of paper PMC4604168 (melanoma cell lines)
